# Where a name gives a salt, the structure may show the parent alone. The list shows a part of the results. The data scatter; read single values as rough.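 Yeast growth was read as optical density at 600 nm. The two-hybrid strains grew without histidine, so growth needed the Pex3–Pex19 binding; a compound counted as trypanosome-selective if it cut growth of the trypanosome-pair strain by more than 65% and the human-pair strain by less than 65%.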
# Columns and labels:
# [1] = test system: Saccharomyces cerevisiae HF7c pdr5Δ; assay: general growth inhibition of yeast HF7c pdr5Δ in -Leu -Trp medium, relative to DMSO; higher = stronger general growth inhibition; settings: 100 µM; 24 h
# [2] = test system: human PEX3-PEX19 interaction (yeast two-hybrid); assay: growth inhibition of yeast two-hybrid strain reporting HsPex3-HsPex19 interaction, relative to DMSO; higher = stronger inhibition of human Pex3-Pex19 interaction / growth; settings: 100 µM; 24 h; 3-aminotriazole 10 mM
# [3] = test system: T. brucei Pex3-Pex19 interaction (yeast two-hybrid); assay: growth inhibition of yeast two-hybrid strain reporting TbPex3-TbPex19 interaction, relative to DMSO; higher = stronger inhibition of T. brucei Pex3-Pex19 interaction / growth; settings: 100 µM; 24 h
SMILES,general growth inhibition [1] [%],growth inhibition [2] [%],growth inhibition [3] [%]
Cc1cc(NC(=O)Nc2ccc3c(ccn3C)c2)sn1,39.4,43.4,60.8
NC1(C(=O)O)CCCCC1 [1-Amino-1-cyclohexanecarboxylic acid hydrochloride],49.9,49.9,63.6
O=C(O)CP(=O)(O)O [Phosphonoacetic acid],43.9,40.1,62.9
CC/C(=C(\c1ccccc1)c1ccc(OCCN(C)C)cc1)c1ccccc1 [Tamoxifen],85.5,82,73.6
CSc1ccc2c(c1)N(CCC1CCCCN1C)c1ccccc1S2 (configuration not stated) [Thioridazine hydrochloride],16.2,30,52.8
CCN(CC)CCOC(=O)c1ccc(N)cc1 [Procaine hydrochloride],19.1,24.3,43.7
CN[C@H](CC(=O)O)C(=O)O [N-Methyl-D-aspartic acid],45.5,47.1,70.4
NC(CO)C(=O)NNCc1ccc(O)c(O)c1O (configuration not stated) [Benserazide hydrochloride],8.98,4.85,28.1
CCOc1ncc(S(=O)(=O)N2CCN(CC)CC2)cc1-c1nc(=O)c2nn(CCOC)c(CC)c2[nH]1 [Gisadenafil besylate salt],8.13,5.8,23.7
Oc1cc2c(cc1O)CN(C(=S)NCCc1ccc(Cl)cc1)CCC2 [Capsazepine],28.3,30.2,51.8
CC(=O)Oc1ccccc1C(=O)O [Acetylsalicylic acid],39.6,48.1,65
CN1CC(O)C(O)C(O)C1CO (configuration not stated) [N-Methyl-1-deoxynojirimycin],35.8,50,66.6
C=CC(N)CCC(=O)O (racemic) [(±)-gamma-Vinyl GABA],14,11.1,43.8
Fc1ccc(C(OCCCc2cnc[nH]2)c2ccc(F)cc2)cc1,40.9,40.7,68.6
CN(C)C[C@H](O)Cn1c2ccc(Br)cc2c2cc(Br)ccc21 (racemic) [Wiskostatin],87.2,84.7,69.7
"CN(C)C(=O)N=NC(=O)N(C)C [N,N,N',N'-Tetramethylazodicarboxamide]",24,29.9,44.4
CCOC(=O)[N-]c1c[n+](N2CCOCC2)no1 [Molsidomine],16.1,10.2,36.5
CC(C)c1c(C(=O)Nc2ccccc2)c(-c2ccccc2)c(-c2ccc(F)cc2)n1CC[C@@H](O)C[C@@H](O)CC(=O)O [Atorvastatin calcium salt trihydrate],84.3,79.8,77.2
COCCOC(=O)C1=C(C)NC(C)=C(C(=O)OC(C)C)C1c1cccc([N+](=O)[O-])c1 (configuration not stated) [Nimodipine],46.9,39.2,38.5
NC(=O)c1ncn([C@@H]2O[C@H](CO)[C@@H](O)[C@H]2O)c1O [Mizoribine],51.9,47.9,72.6
CC(C)(C)NC[C@H](O)COc1nsnc1N1CCOCC1 [S(-)-Timolol maleate],57.3,47.7,65.6
N/C(=N\C(=O)c1nc(Cl)c(N)nc1N)NCc1ccccc1 [Benzamil hydrochloride],29.5,34.2,57.5

# Given with tabs: part of the list above
SMILES	general growth inhibition [1] [%]	growth inhibition [2] [%]	growth inhibition [3] [%]
NC(=O)c1ncn([C@@H]2O[C@H](CO)[C@@H](O)[C@H]2O)c1O [Mizoribine]	51.9	47.9	72.6
CC(C)(C)NC[C@H](O)COc1nsnc1N1CCOCC1 [S(-)-Timolol maleate]	57.3	47.7	65.6

# (next part)

SMILES,general growth inhibition [1] [%],growth inhibition [2] [%],growth inhibition [3] [%]
"O=c1cc(-c2ccccc2)[nH]c2nc(Cl)ccc12 [7-Chloro-4-hydroxy-2-phenyl-1,8-naphthyridine]",29.5,32,44
CNCCCC1c2ccccc2C=Cc2ccccc21 [Protriptyline hydrochloride],51.5,42.3,51.4
[Cl-].[Li+] [Lithium Chloride],32.4,37.3,71.9
CC(C)(CO)Cc1cc(C(C)(C)C)c(O)c(C(C)(C)C)c1,50.5,32.6,35.1
N=C(NC(=O)c1nc(Cl)c(N)nc1N)Nc1ccccc1 [Phenamil methanesulfonate],51.8,37.7,70
Fc1ccc2[nH]c(CN3CCN(c4ccccn4)CC3)cc2c1,20.4,25.7,47.9
CNS(=O)(=O)CCc1ccc2[nH]cc(C3CCN(C)CC3)c2c1 [Naratriptan hydrochloride],25.3,37,56.1
Oc1ccc(O)cc1 [Hydroquinone],42,37.7,62.6
C[C@@H]1O[C@@H]1P(=O)(O)O [Phosphomycin disodium],15.8,14.4,36.5
CCOC(=O)C(C)(C)Oc1ccc(Cl)cc1 [Clofibrate],42.5,38,46.8
N[C@@H](CS(=O)O)C(=O)O [L-Cysteinesulfinic Acid],46.3,40.3,63.5
O=C(O)c1cc([N+](=O)[O-])ccc1NCCCc1ccccc1 [5-Nitro-2-(3-phenylpropylamino)benzoic acid],45.9,34.4,47.6
CNC(=O)c1cc2c(cn1)[nH]c1ccccc12 [N-Methyl-beta-carboline-3-carboxamide],33.2,38.9,51.2
CCN(CC)C(=S)SSC(=S)N(CC)CC [Tetraethylthiuram disulfide],90.8,87.5,83.6
CC(C)C[C@H](NC(=O)[C@@H](O)[C@H](N)Cc1ccccc1)C(=O)O [Bestatin hydrochloride],41,45.5,56.3
CSC(=N)N [S-Methylisothiourea hemisulfate],53.9,44.6,65.3
O=C(O)c1cc2cc(Cc3cccnc3)ccc2o1 [Furegrelate sodium],37.6,42.3,57
CNCC[C@H](Oc1ccc(C(F)(F)F)cc1)c1ccccc1 [S-(+)-Fluoxetine hydrochloride],2.34,-9.85,15.7
NS(=O)(=O)c1cc2c(cc1Cl)N=CNS2(=O)=O [Chlorothiazide],46.4,45.8,65
CC(N)(C(=O)O)c1ccc(C(=O)O)cc1 (racemic) [(±)-alpha-Methyl-4-carboxyphenylglycine],29.6,17.4,73.9
CN(C)CCc1c[nH]c2ccc(Cn3cncn3)cc12 [Rizatriptan benzoate salt],37.3,33.9,66.2
O=CN(O)CCCP(=O)(O)O [Fosmidomycin sodium salt hydrate],54.1,38.9,56.9
